These are yes or no findings as the source states them, for the method shown. In cells and extracts the contact can be indirect. Some entries that bind do so weakly or less than the wild type.
T1: LARP7 (human (endogenous in HCT116)) (UniProt Q4G0J3)
T1 sequence: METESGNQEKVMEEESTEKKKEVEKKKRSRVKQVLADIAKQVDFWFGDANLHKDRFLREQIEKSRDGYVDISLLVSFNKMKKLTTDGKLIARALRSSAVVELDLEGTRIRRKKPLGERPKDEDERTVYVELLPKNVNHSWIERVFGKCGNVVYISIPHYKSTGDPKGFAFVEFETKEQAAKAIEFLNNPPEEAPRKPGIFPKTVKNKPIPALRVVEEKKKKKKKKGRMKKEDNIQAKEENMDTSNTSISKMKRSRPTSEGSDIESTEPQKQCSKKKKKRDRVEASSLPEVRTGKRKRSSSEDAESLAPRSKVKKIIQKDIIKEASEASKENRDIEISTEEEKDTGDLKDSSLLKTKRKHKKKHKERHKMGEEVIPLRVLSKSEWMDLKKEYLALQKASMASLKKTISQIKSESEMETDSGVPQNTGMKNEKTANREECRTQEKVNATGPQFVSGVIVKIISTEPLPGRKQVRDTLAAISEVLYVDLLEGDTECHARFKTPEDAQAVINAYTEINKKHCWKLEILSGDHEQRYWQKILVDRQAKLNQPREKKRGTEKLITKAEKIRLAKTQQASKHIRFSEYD


Target: T1, LARP7 (human (endogenous in HCT116))
Assay: co-IP; endogenous proteins in HCT116 lysate (150 mM NaCl, 50 mM Tris-HCl pH 7.5, 1% NP-40, protease inhibitor, SUPERase-In); antibody against LARP7, HEXIM1 or MEPCE 2 h at 4 °C, Protein A beads, western blot; cells treated with control siRNA or PUS7 siRNA (PUS7 KD) before lysis

| binding | Binder |
| --- | --- |
| binds | hnRNP Q (protein, UniProt O60506 1-623) MATEHVNGNGTEEPMDTTSAVIHSENFQTLLDAGLPQKVAEKLDEIYVAGLVAHSDLDERAIEALKEFNEDGALAVLQQFKDSDLSHVQNKSAFLCGVMKTYRQREKQGTKVADSSKGPDEAKIKALLERTGYTLDVTTGQRKYGGPPPDSVYSGQQPSVGTEIFVGKIPRDLFEDELVPLFEKAGPIWDLRLMMDPLTGLNRGYAFVTFCTKEAAQEAVKLYNNHEIRSGKHIGVCISVANNRLFVGSIPKSKTKEQILEEFSKVTEGLTDVILYHQPDDKKKNRGFCFLEYEDHKTAAQARRRLMSGKVKVWGNVGTVEWADPIEDPDPEVMAKVKVLFVRNLANTVTEEILEKAFSQFGKLERVKKLKDYAFIHFDERDGAVKAMEEMNGKDLEGENIEIVFAKPPDQKRKERKAQRQAAKNQMYDDYYYYGPPHMPPPTRGRGRGGRGGYGYPPDYYGYEDYYDYYGYDYHNYRGGYEDPYYGYEDFQVGARGRGGRGARGAAPSRGRGAAPPRGRAGYSQRGGPGSARGVRGARGGAQQQRGRGVRGARGGRGGNVGGKRKADGYNQPDSKRRQTNNQNWGSQPIAQQPLQGGDHSGNYGYKSENQEFYQDTFGQQWK |
| binds | hnRNP R (protein, UniProt O43390 1-633) MANQVNGNAVQLKEEEEPMDTSSVTHTEHYKTLIEAGLPQKVAERLDEIFQTGLVAYVDLDERAIDALREFNEEGALSVLQQFKESDLSHVQNKSAFLCGVMKTYRQREKQGSKVQESTKGPDEAKIKALLERTGYTLDVTTGQRKYGGPPPDSVYSGVQPGIGTEVFVGKIPRDLYEDELVPLFEKAGPIWDLRLMMDPLSGQNRGYAFITFCGKEAAQEAVKLCDSYEIRPGKHLGVCISVANNRLFVGSIPKNKTKENILEEFSKVTEGLVDVILYHQPDDKKKNRGFCFLEYEDHKSAAQARRRLMSGKVKVWGNVVTVEWADPVEEPDPEVMAKVKVLFVRNLATTVTEEILEKSFSEFGKLERVKKLKDYAFVHFEDRGAAVKAMDEMNGKEIEGEEIEIVLAKPPDKKRKERQAARQASRSTAYEDYYYHPPPRMPPPIRGRGRGGGRGGYGYPPDYYGYEDYYDDYYGYDYHDYRGGYEDPYYGYDDGYAVRGRGGGRGGRGAPPPPRGRGAPPPRGRAGYSQRGAPLGPPRGSRGGRGGPAQQQRGRGSRGSRGNRGGNVGGKRKADGYNQPDSKRRQTNNQQNWGSQPIAQQPLQQGGDYSGNYGYNNDNQEFYQDTYGQQWK |

Reference: publication PMC12575831
